For experiment [1], the target named is β-arrestin2 (UniProt P29067). The experiment is described as follows: ITC. (ITC needs no label: the signal is the heat of the interaction.)
Experiment [2] addresses β-arrestin2 (UniProt P29067). The experiment can be described thus: HDX-MS.

The chains behind the UniProt entries cited, without tags or fusion partners. Where a name states a change or a piece, a line headed by the entry shows the natural chain unless it says otherwise.
UniProt P29067: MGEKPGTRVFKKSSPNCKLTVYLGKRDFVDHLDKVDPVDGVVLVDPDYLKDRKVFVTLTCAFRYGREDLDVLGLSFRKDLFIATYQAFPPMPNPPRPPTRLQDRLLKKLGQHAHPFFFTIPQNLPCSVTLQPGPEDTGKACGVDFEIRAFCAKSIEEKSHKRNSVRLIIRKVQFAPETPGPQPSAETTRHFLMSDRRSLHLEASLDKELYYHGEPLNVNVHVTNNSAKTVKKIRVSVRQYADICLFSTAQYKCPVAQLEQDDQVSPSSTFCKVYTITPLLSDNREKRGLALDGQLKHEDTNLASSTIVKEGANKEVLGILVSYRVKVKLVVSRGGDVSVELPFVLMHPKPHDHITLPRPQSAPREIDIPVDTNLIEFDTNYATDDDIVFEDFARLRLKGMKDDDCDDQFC
UniProt P25106: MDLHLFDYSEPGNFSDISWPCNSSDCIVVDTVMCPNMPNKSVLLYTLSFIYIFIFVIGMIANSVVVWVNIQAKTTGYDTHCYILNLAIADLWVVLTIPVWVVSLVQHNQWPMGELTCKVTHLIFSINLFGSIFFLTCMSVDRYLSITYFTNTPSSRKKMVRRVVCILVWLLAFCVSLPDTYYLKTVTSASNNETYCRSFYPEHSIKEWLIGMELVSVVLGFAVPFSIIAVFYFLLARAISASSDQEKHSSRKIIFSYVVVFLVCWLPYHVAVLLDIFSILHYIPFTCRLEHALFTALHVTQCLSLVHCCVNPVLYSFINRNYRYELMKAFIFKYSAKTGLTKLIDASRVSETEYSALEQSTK

Our source for the binding values is doi:10.1101/2025.01.05.631353 (bioRxiv, 2025).

These are yes or no findings as the source states them, for the method shown. Some results given as binding are weak or reduced against the parent protein; the word gives no strength.

On to “C7pp2, phosphopeptide derived from the carboxyl terminus of CXCR7 (residues 346-359) (from UniProt P25106 346-359)”, for which the binding result in the experiment with β-arrestin2 [1] and in the experiment with β-arrestin2 [2] was “binds” in each case.
